In PubChem BioAssay AID1347131 (National Center for Advancing Translational Sciences (NCATS), 2019):
The whole screen tested about 410,000 compounds, of which about 2,000 (0.49%) were called active. The shares of active, inactive and inconclusive entries below differ from those in the screen. The call rests on the fitted dose curve; tested in HEK293 reporter line. A potency beside an inconclusive call is a rough fit, not a confirmed value.

experiment: qHTS Assay for Foot and Mouth Disease Virus Antivirals: Primary Screen against the MLPCN compound library; settings: FMDV antiviral cell-based qHTS; activity, negative = inhibition: at 57.9 µM (top of the series); further: nearly all actives have a fitted effect of over 55% in size
Potency means the concentration at half of the fitted maximal effect.

SMILES	Potency	activity, negative = inhibition
Cc1ccccc1Oc1nc2c(C)cccn2c(=O)c1/C=C(\C#N)C(=O)Nc1c(C)n(C)n(-c2ccccc2)c1=O	inconclusive: 31.6 µM [inhibitor, partial curve, poor fit]	
CC(C)Cc1[nH]c(=O)c(C#N)c2c1COC(C)(C)C2	inconclusive: 7.94 µM [inhibitor, partial curve, poor fit]	
O=C(CSCc1nc2ccccc2[nH]1)N1CCN(c2cccc(Cl)c2)CC1	inconclusive: 35.5 µM [inhibitor, partial curve, poor fit]	
CS(=O)(=O)Nc1ccc(-c2nc3ccccc3s2)cc1	inconclusive: 25.1 µM [inhibitor, single point]	
COc1ccc2[nH]c3c4c(ccc3c2c1)C(=O)C=CC4=O	inconclusive: 14.1 µM [inhibitor, partial curve, poor fit]	
COc1ccc(/C=C/C(=O)Nc2cccc(F)c2)cc1S(=O)(=O)N1CCOCC1	inconclusive: 35.5 µM [inhibitor, partial curve, poor fit]	
CN(c1ccccc1)S(=O)(=O)c1cccc(C(=O)N2CCN(c3ccccn3)CC2)c1	inconclusive: 39.8 µM [inhibitor, partial curve, poor fit]	
COc1cc(C2C3=C(CC(C)(C)CC3=O)N(C)C3=C2C(=O)CC(C)(C)C3)cc(Br)c1O	inconclusive: 1.58 µM [inhibitor, full curve]	
COc1ccc(OCCOC(=O)c2cc(S(=O)(=O)N3CCOCC3)c(Cl)cc2Cl)cc1	inconclusive: 39.8 µM [inhibitor, partial curve, poor fit]	
Cc1c(C(=O)Nc2ccc(F)cc2)oc2ccc(S(=O)(=O)N3CCCCCC3)cc12	inconclusive: 28.2 µM [inhibitor, partial curve, poor fit]	
COc1ccc(C(=O)NCC(=O)N2CCN(C(=O)c3ccco3)CC2)cc1[N+](=O)[O-]		inactive: -58.7%
Cc1cc2oc(=O)cc(CN3CCCCC3C)c2cc1C(C)C (stereo unspecified)	inconclusive: 39.8 µM [inhibitor, partial curve, poor fit]	
O=C(Nc1nc2ccccc2s1)c1ccc(OCC2CCCO2)cc1 (stereo unspecified)	inconclusive: 12.6 µM [inhibitor, single point]	
O=C(C1CCCCC1)N1CCN(c2ccnc3cc(Cl)ccc23)CC1	inconclusive: 28.2 µM [inhibitor, partial curve, poor fit]	
CCOCCCNC(=O)c1cn(CC(C)C)c(=O)c2c1c1ccccc1n2C		inconclusive: -30.3% [inhibitor]
COc1ccc(/C=C/C(=O)NCC(=O)n2nc(C)cc2C)cc1	inconclusive: 12.6 µM [inhibitor, partial curve]	
CSc1ccc(/C=C/c2nc3ccccc3n2S(=O)(=O)c2ccc(Br)cc2)cc1	inconclusive: 14.1 µM [inhibitor, single point]	
CCN1CCN(C(=O)C2CCN(c3nnc(C)c4c(C)n(-c5ccc(C)cc5)nc34)CC2)CC1		inactive: -31%

2 successive records from above, for reference:
SMILES	Potency	activity, negative = inhibition
COc1ccc(/C=C/C(=O)Nc2cccc(F)c2)cc1S(=O)(=O)N1CCOCC1	inconclusive: 35.5 µM [inhibitor, partial curve, poor fit]	
CN(c1ccccc1)S(=O)(=O)c1cccc(C(=O)N2CCN(c3ccccn3)CC2)c1	inconclusive: 39.8 µM [inhibitor, partial curve, poor fit]	

(list continues)

SMILES	Potency	activity, negative = inhibition
COCCNC(=O)Nc1ccc2nc(-c3cccs3)c(-c3cccs3)nc2c1	inconclusive: 25.1 µM [inhibitor, partial curve, poor fit]	
CCN(CC)S(=O)(=O)c1cc(NC(=O)C2CCN(c3ncnc4sc(C)c(C)c34)CC2)ccc1Cl	inconclusive: 8.91 µM [inhibitor, full curve, poor fit]	
CCCCn1c(N)c(N(CC(C)C)C(=O)c2ccc(-c3ccc(Cl)cc3)o2)c(=O)[nH]c1=O	inconclusive: 20 µM [inhibitor, single point]	
COc1cccc(C=C(C(C)=O)C(=O)c2ccccc2)c1	inconclusive: 20 µM [inhibitor, partial curve, poor fit]	
COCCCNc1ccn2nc(-c3ccccc3)cc2n1	inconclusive: 11.2 µM [inhibitor, single point]	
Cc1ccc(-c2nn(CC(=O)O)c(=O)c3ccccc23)cc1	inconclusive: 35.5 µM [inhibitor, partial curve, poor fit]	
CC(=O)O[C@@H]1C[C@H]2C(C)(C)C(=O)C=C[C@]2(C)[C@H]2CC[C@@]3(C)[C@H](c4ccoc4)OC(=O)[C@H]4O[C@]43[C@@]21C	inconclusive: 15.8 µM [inhibitor, partial curve, poor fit]	
COC(=O)c1ccccc1NC(=O)CSc1nc2cccnc2n1C	inconclusive: 12.6 µM [inhibitor, partial curve]	
COc1ccc(NC(=O)C2Cc3c(-c4cccc(C(C)=O)c4)ccnc3O2)cc1OC (stereo unspecified)	inconclusive: 8.91 µM [inhibitor, partial curve, poor fit]	
CCN(CC)c1ccc(C2NC(=O)c3ccccc3N2)cc1 (stereo unspecified)	inconclusive: 11.2 µM [inhibitor, partial curve, poor fit]	
Cc1ccc(C(=O)CSc2nnnn2C(C)C)c(C)c1	inconclusive: 14.1 µM [inhibitor, partial curve, poor fit]	
CCCOc1ccc(F)cc1-c1cc(C(=O)Nc2ccc(OC)nc2)[nH]n1	inconclusive: 10 µM [inhibitor, partial curve]	
Cc1ccccc1-n1cnc2c(sc3nc(N4CCOCC4)c4c(c32)CCCC4)c1=O	inconclusive: 10 µM [inhibitor, partial curve]	
CN(C)NC(=O)C(NC(=O)c1ccccc1)C12CC3CC(CC(C3)C1)C2 (stereo unspecified)	inconclusive: 12.6 µM [inhibitor, partial curve]	
COc1ccc(CN2CC(=O)N(c3ccc(C)cc3)C2=S)cc1OC	inconclusive: 25.1 µM [inhibitor, partial curve, poor fit]	
CCOC(=O)c1cc(-c2ccccc2)sc1NC(=O)CCN1C(=O)c2ccccc2C1=O		inactive: -32.5%
O=C(C1CCN(S(=O)(=O)c2ccc3ccccc3c2)CC1)N1CCN(c2ncccn2)CC1	inconclusive: 28.2 µM [inhibitor, partial curve, poor fit]	
c1ccc(CN2CCN(c3nc(NCc4ccco4)c4ccccc4n3)CC2)cc1	inconclusive: 31.6 µM [inhibitor, partial curve, poor fit]	
